# Test results from PubChem BioAssay AID651640 (Broad Institute, 2012).
# Hit rate of the full screen: of about 350,000 compounds, about 6,000 (1.7%) were called active. The shares of active, inactive and inconclusive entries below differ from those in the screen. Rule as the data show it: active = CPE inhibition above about 20% (passing the limit was not always enough); inconclusive = no clear call, values can overlap the other calls; tested in BHK-21 cells.
# Test: protection of cells from dengue 2 killing – plate reader, single concentration, primary screen (AID 651640);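 also: 0% = median of neutral control wells and 100% = median of positive control wells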
# Details: DENV2-infected cells, cytopathic effect rescue, at 9.99 µM, hits give high values
row,SMILES,CPE inhibition
1,O=C(CSc1nc2ccc(Cl)cc2[nH]1)Nc1ccc2[nH]c(=O)[nH]c2c1,inconclusive: 85.5%
2,O=C(c1ccc(F)cc1)N1CC(=O)N2[C@@H](CO)[C@@H](c3ccc(C#CC4CCCC4)cc3)[C@@H]2C1,active: 43.6%
3,COc1ccc(C(=O)Nc2ccnn2C2CCN(C(=O)c3cnsn3)CC2)cc1,active: 39.7%
4,C[C@H]1CN([C@@H](C)CO)C(=O)c2cccc(NC(=O)c3ccncc3)c2O[C@@H]1CN(C)S(=O)(=O)c1ccc(F)cc1,inconclusive: 20.1%
5,Cc1ccc(C)c(NC(=O)CSc2nnc(NC(=O)C3CC3)s2)c1,inconclusive: 35.6%
6,CCOC(=O)C1CCN(C(=O)c2cn(CCOC)c(=O)c3c2c2ccccc2n3C)CC1,inactive: -2.31%
7,Cc1cc2c(cc1S(=O)(=O)N1CCN(c3cccc(C)c3C)CC1)OCCN2C,inactive: -6.01%
8,O=C1CC(=O)Nc2cc(S(=O)(=O)N3CCN(c4ccc([N+](=O)[O-])cc4)CC3)ccc2N1,inconclusive: 33.9%
9,Cc1cc(OCC(=O)NCCc2c[nH]c3ccccc23)c2c(C)cc(=O)oc2c1,inconclusive: 25%
10,CCN(C[C@H]1N[C@@](Cc2ccccc2)(C(=O)OC)[C@H]2C(=O)N(C)C(=O)[C@@H]12)C(=O)c1ccccc1,inactive: -3.72%
11,C[C@@H]1CN([C@H](C)CO)S(=O)(=O)c2ccc(/C=C/c3ccccc3)cc2O[C@H]1CN(C)C(=O)C1CC1,inconclusive: 23.9%
12,COc1ccc(C(C)NC(=O)c2ccncc2)cc1 (centres undefined),inconclusive: 20.8%
13,C[C@H](CO)N1C[C@H](C)[C@@H](CN(C)C(=O)Nc2ccc(F)cc2)Oc2ncc(C3=CCCC3)cc2C1=O,active: 26.6%
14,C[C@@H]1CCCCO[C@@H](CN(C)C(=O)c2ccccc2)[C@@H](C)CN([C@H](C)CO)C(=O)c2cc(NC(=O)CCC(F)(F)F)ccc2O1,active: 93.4%
15,COCCCNC(=O)C[C@H]1C[C@H](C(=O)N(C(C)C)C(C)C)[C@@]2(C)c3[nH]c4cc(CCC(=O)N(C)C)ccc4c3CCN2C1=O,active: 36.8%
16,O=C(c1ccco1)N1CCC(c2nc3ccccc3[nH]2)CC1,inconclusive: 34%
17,COc1cccc(OC)c1C1=CC(=O)C[C@H](c2ccc3c(c2)OCO3)C1,inconclusive: 40.3%
18,C[C@H](CO)NC(=O)c1nc[nH]c1C(=O)N[C@@H](C)c1ccccc1,inactive: 4.55%
19,CC=Cc1ccc2n(c1=O)C[C@H]1[C@H](CO)[C@@H](C(=O)NCC(F)(F)F)[C@@H]2N1C(=O)C1CC1 (mixture of isomers),active: 59.2%

# 2 of the compounds above, as tab-separated lines.
row	SMILES	CPE inhibition
15	COCCCNC(=O)C[C@H]1C[C@H](C(=O)N(C(C)C)C(C)C)[C@@]2(C)c3[nH]c4cc(CCC(=O)N(C)C)ccc4c3CCN2C1=O	active: 36.8%
16	O=C(c1ccco1)N1CCC(c2nc3ccccc3[nH]2)CC1	inconclusive: 34%
